These are yes or no findings as the source states them, for the method shown. Some entries that bind do so weakly or less than the wild type.
What was measured:
[1] = biological target: purified human mesothelin protein (recombinant, 6xHis tag) (human) (UniProt Q13421); experiment: single phage ELISA, mesothelin coated at 100 ng/well
[2] = biological target: purified human mesothelin protein (recombinant, 6xHis tag) (human) (UniProt Q13421); experiment: single-phage ELISA
[3] = biological target: purified human mesothelin protein (recombinant, 6xHis tag) (human) (UniProt Q13421); experiment: single phage ELISA, 100 ng/well coated antigen, anti-M13 detection
[4] = biological target: purified human mesothelin protein (recombinant, 6xHis tag) (human) (UniProt Q13421); experiment: SPR (Biacore T200), antibody captured by anti-human IgG (Fc), human mesothelin as analyte at 10, 20, 40, 80, 160 nM

Chains of the proteins cited; added tags and fusions are not shown. Lines headed by an entry give the natural chain unless they say otherwise; changes in a name come on top.
UniProt Q13421: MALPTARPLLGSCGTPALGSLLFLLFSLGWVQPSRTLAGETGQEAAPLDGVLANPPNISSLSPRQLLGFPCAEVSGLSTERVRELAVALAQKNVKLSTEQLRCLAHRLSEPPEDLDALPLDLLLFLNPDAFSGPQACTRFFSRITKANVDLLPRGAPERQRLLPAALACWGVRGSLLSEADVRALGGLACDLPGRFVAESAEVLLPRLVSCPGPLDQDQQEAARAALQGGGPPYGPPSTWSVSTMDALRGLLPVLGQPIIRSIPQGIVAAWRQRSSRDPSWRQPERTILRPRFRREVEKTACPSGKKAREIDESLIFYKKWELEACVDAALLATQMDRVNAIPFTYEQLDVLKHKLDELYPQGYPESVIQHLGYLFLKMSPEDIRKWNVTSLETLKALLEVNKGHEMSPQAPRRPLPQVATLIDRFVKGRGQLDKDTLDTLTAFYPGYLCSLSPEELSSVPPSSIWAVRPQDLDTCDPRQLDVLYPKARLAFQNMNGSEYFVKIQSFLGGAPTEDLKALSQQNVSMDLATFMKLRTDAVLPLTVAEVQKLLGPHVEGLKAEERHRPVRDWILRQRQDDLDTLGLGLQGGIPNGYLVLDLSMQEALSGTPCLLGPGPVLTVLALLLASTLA

| Binder | binding [1] | binding [2] | binding [3] | binding [4] |
| --- | --- | --- | --- | --- |
| single chain antibody P1A6E (phage-displayed, single phage ELISA) (scFv, the fusion to the phage coat protein is not described) scFv: QVQLEQSGLGLVKPSQTLSLTCAISGDTVSSDSAAWNWIRQSPSRGLEWLGRTYYRSKWFNDYAVSVKGRITINSDTSKNQFSLQLNSVTPEDTAVYYCARSNSYYYYAMDVWGQGTLVTVSSGGGGSGGGGSGGGGSQAVLTQPSSLSASPGASASLTCTLRSGINVGIYRIYWYQQRPGSPPQILLTYKSDSDKYQGSGVPSRFSGSKDASANAGILLISGLQSEDEADYYCMIWHSGGWVFGGGTKVTVLG | binds | binds | binds | – |
| single chain antibody P3F2 (phage-displayed, single phage ELISA) (scFv, the fusion to the phage coat protein is not described) scFv: QMQLVQSGAEVKKPGASVKVSCKASGYTFTSYYMHWVRQAPGQGLEWMGIINPSGGSTSYAQKFQGRVTMTRDTSTSTVYMELSSLRSEDTAVYYCASSRSGTTVVNHDAFDIWGKGTTVTVSSGGGGSGGGGSGGGGSDIQLTQSPSSLSASVGDRVTITCRASQVISRALAWYQQTPGKPPKLLIYDASNLQSGVPSRFSGSGSGTDFTLTISRLQPEDFATYYCQQFNSYPLTFGGGTKLEIKR | binds | binds | binds | – |
| P1A6E monoclonal antibody (antibody, V domains shown, Full antibody: VH in plasmid pIH with human IgG1 CH gene, VL in plasmid pIK with human IgG CL gene; also called monoclonal antibody P1A6E) VH: QVQLEQSGLGLVKPSQTLSLTCAISGDTVSSDSAAWNWIRQSPSRGLEWLGRTYYRSKWFNDYAVSVKGRITINSDTSKNQFSLQLNSVTPEDTAVYYCARSNSYYYYAMDVWGQGTLVTVSS VL: QAVLTQPSSLSASPGASASLTCTLRSGINVGIYRIYWYQQRPGSPPQILLTYKSDSDKYQGSGVPSRFSGSKDASANAGILLISGLQSEDEADYYCMIWHSGGWVFGGGTKVTVLG | – | – | – | binds |
| P3F2 monoclonal antibody (antibody, V domains shown, Full antibody: VH in plasmid pIH with human IgG1 CH gene, VL in plasmid pIK with human IgG CL gene; also called monoclonal antibody P3F2) VH: QMQLVQSGAEVKKPGASVKVSCKASGYTFTSYYMHWVRQAPGQGLEWMGIINPSGGSTSYAQKFQGRVTMTRDTSTSTVYMELSSLRSEDTAVYYCASSRSGTTVVNHDAFDIWGKGTTVTVSS VL: DIQLTQSPSSLSASVGDRVTITCRASQVISRALAWYQQTPGKPPKLLIYDASNLQSGVPSRFSGSGSGTDFTLTISRLQPEDFATYYCQQFNSYPLTFGGGTKLEIKR | – | – | – | binds |
